Measurements taken from the supplement of paper PMC6078165.

Tested on: HCC1143
Assay: relative JC-1 red fluorescence (viability) vs pre-drug, coculture with fibroblast (fraction); higher = more viable cancer cells
Experimental: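 JC-1 labelled TNBC cells cocultured 1:1 (1,500 cells each) with CellTrace Violet stained primary or stromal fibroblasts in 384-well plates in FluoroBrite medium, treated with one of 42 anticancer drugs at 0.1, 1, 10 or 100 uM. JC-1 red fluorescence (mitochondrial integrity in cancer cells only) was read by plate reader every 8 h for 72 h. Values are normalised to each well's pre-drug value. The stock of one drug was tenfold lower, so its dose labels may be too high.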

CCc1c2c(nc3ccc(OC(=O)N4CCC(N5CCCCC5)CC4)cc13)-c1cc3c(c(=O)n1C2)COC(=O)[C@]3(O)CC [Irinotecan]
relative JC-1 red fluorescence
Conditions	8 h	16 h	24 h	32 h	40 h	48 h	56 h	64 h	72 h
0.1 µM, coculture fibroblast: C12385	0.856	0.773	0.715	0.666	0.601	0.556	0.518	0.479	0.461
0.1 µM, coculture fibroblast: H6013	0.7192	0.643	0.598	0.579	0.518	0.503	0.466	0.45	0.407
0.1 µM, coculture fibroblast: H6019	0.809	0.732	0.685	0.629	0.576	0.538	0.488	0.439	0.4
0.1 µM, coculture fibroblast: H6076	0.801	0.755	0.7374	0.764	0.653	0.666	0.643	0.635	0.66
0.1 µM, coculture fibroblast: H6231	0.803	0.789	0.72117	0.645	0.6124	0.581	0.53865	0.506	0.479
0.1 µM, coculture fibroblast: HADF	0.737	0.67	0.637	0.633	0.549	0.522	0.485	0.454	0.433
0.1 µM, coculture fibroblast: HCFa	0.748	0.679	0.645	0.615	0.544	0.517	0.473	0.44	0.412
0.1 µM, coculture fibroblast: HCPF	0.791	0.75	0.743	0.773	0.688	0.668	0.637	0.616	0.626
0.1 µM, coculture fibroblast: HHSteC	0.794	0.7339	0.683	0.641	0.582	0.556	0.516	0.489	0.443
0.1 µM, coculture fibroblast: HMF	0.7852	0.762	0.721	0.706	0.65	0.638	0.609	0.587	0.572
0.1 µM, coculture fibroblast: HPFa	0.889	0.815	0.7742	0.688	0.6378	0.60406	0.537	0.489	0.452
0.1 µM, coculture fibroblast: HUF	0.8482	0.787	0.738	0.66	0.622	0.61	0.561	0.541	0.514
0.1 µM, coculture fibroblast: Hs5	0.846	0.796	0.786	0.81017	0.718	0.703	0.683	0.663	0.675
0.1 µM, coculture fibroblast: Hs27A	0.711	0.61841	0.5894	0.594	0.4702	0.44767	0.39649	0.359	0.335
0.1 µM, coculture fibroblast: Hs343T	0.796	0.775	0.736	0.716	0.641	0.622	0.589	0.566	0.559
0.1 µM, coculture fibroblast: WS1	0.814	0.768	0.75	0.699	0.655	0.632	0.591	0.564	0.54
1 µM, coculture fibroblast: C12385	0.822	0.77	0.714	0.638	0.572	0.517	0.487	0.451	0.437
1 µM, coculture fibroblast: H6013	0.783	0.731	0.688	0.673	0.605	0.588	0.551	0.532	0.49
1 µM, coculture fibroblast: H6019	0.855	0.819	0.816	0.768	0.739	0.727	0.689	0.655	0.626
1 µM, coculture fibroblast: H6076	0.811	0.795	0.765	0.745	0.689	0.68	0.656	0.637	0.646
1 µM, coculture fibroblast: H6231	0.7863	0.767	0.706	0.607	0.584	0.548	0.51	0.476	0.46
1 µM, coculture fibroblast: HADF	0.788	0.754	0.72	0.711	0.629	0.608	0.571	0.545	0.503
1 µM, coculture fibroblast: HCFa	0.7781	0.691	0.631	0.602	0.52	0.484	0.44	0.399	0.379
1 µM, coculture fibroblast: HCPF	0.786	0.767	0.742	0.681	0.663	0.631	0.596	0.57	0.563
1 µM, coculture fibroblast: HHSteC	0.826	0.766	0.727	0.682	0.621	0.597	0.555	0.528	0.458
1 µM, coculture fibroblast: HMF	0.808	0.779	0.734	0.7065	0.6654	0.639	0.603	0.579	0.567
1 µM, coculture fibroblast: HPFa	0.897	0.833	0.79	0.673	0.611	0.56	0.484	0.435	0.3952
1 µM, coculture fibroblast: HUF	0.851	0.76	0.701	0.629	0.577	0.546	0.498	0.469	0.435
1 µM, coculture fibroblast: Hs5	0.8394	0.797	0.77	0.756	0.676	0.654	0.628	0.617	0.606
1 µM, coculture fibroblast: Hs27A	0.718	0.653	0.605	0.602	0.472	0.461	0.412	0.378	0.345
1 µM, coculture fibroblast: Hs343T	0.8021	0.795	0.723	0.64	0.603	0.5734	0.527	0.496	0.476
1 µM, coculture fibroblast: WS1	0.815	0.764	0.754	0.709	0.672	0.656	0.618	0.604	0.596
10 µM, coculture fibroblast: C12385	0.8555	0.788	0.743	0.692	0.614	0.573	0.53	0.482	0.454
10 µM, coculture fibroblast: H6013	0.758	0.713	0.681	0.6684	0.625	0.622	0.596	0.582	0.547
10 µM, coculture fibroblast: H6019	0.8224	0.769	0.734	0.669	0.632	0.626	0.59	0.569	0.54
10 µM, coculture fibroblast: H6076	0.85	0.808	0.788	0.787	0.721	0.725	0.701	0.688	0.7
10 µM, coculture fibroblast: H6231	0.856	0.8574	0.783	0.699	0.708	0.673	0.633	0.594	0.566
10 µM, coculture fibroblast: HADF	0.781	0.714	0.679	0.6783	0.583	0.559	0.526	0.496	0.4611
10 µM, coculture fibroblast: HCFa	0.813	0.742	0.701	0.673	0.5945	0.562	0.509	0.466	0.43
10 µM, coculture fibroblast: HCPF	0.8448	0.802	0.775	0.748	0.696	0.688	0.649	0.614	0.614
10 µM, coculture fibroblast: HHSteC	0.785	0.704	0.665	0.629	0.555	0.52114	0.4713	0.43479	0.3819
10 µM, coculture fibroblast: HMF	0.8294	0.8408	0.787	0.762	0.7163	0.69407	0.669	0.634	0.622
10 µM, coculture fibroblast: HPFa	0.9131	0.83	0.812	0.725	0.676	0.643	0.58	0.534	0.493
10 µM, coculture fibroblast: HUF	0.897	0.7991	0.7338	0.673	0.614	0.579	0.5154	0.48185	0.455
10 µM, coculture fibroblast: Hs5	0.901	0.862	0.866	0.9	0.83	0.825	0.824	0.824	0.809
10 µM, coculture fibroblast: Hs27A	0.798	0.73	0.719	0.745	0.641	0.632	0.605	0.588	0.5633
10 µM, coculture fibroblast: Hs343T	0.837	0.834	0.798	0.7591	0.714	0.699	0.664	0.622	0.599
10 µM, coculture fibroblast: WS1	0.821	0.762	0.724	0.654	0.593	0.562	0.516	0.479	0.449
100 µM, coculture fibroblast: C12385	0.885	0.8364	0.7623	0.683	0.66	0.65	0.653	0.64424	0.6454
100 µM, coculture fibroblast: H6013	0.8437	0.805	0.7669	0.7385	0.726	0.761	0.757	0.7692	0.6937
100 µM, coculture fibroblast: H6019	0.881	0.8229	0.7819	0.713	0.6724	0.6659	0.637	0.622	0.622
100 µM, coculture fibroblast: H6076	0.908	0.8854	0.895	0.853	0.785	0.773	0.759	0.754	0.761
100 µM, coculture fibroblast: H6231	0.902	0.843	0.878	0.71	0.668	0.616	0.579	0.54	0.53
100 µM, coculture fibroblast: HADF	0.8131	0.781	0.72	0.697	0.647	0.658	0.647	0.639	0.562
100 µM, coculture fibroblast: HCFa	0.87	0.801	0.714	0.694	0.64	0.636	0.623	0.621	0.584
100 µM, coculture fibroblast: HCPF	0.891	0.938	0.888	0.768	0.763	0.745	0.728	0.706	0.707
100 µM, coculture fibroblast: HHSteC	0.903	0.855	0.752	0.692	0.635	0.626	0.578	0.557	0.479
100 µM, coculture fibroblast: HMF	0.886	0.938	0.844	0.738	0.666	0.629	0.582	0.546	0.559
100 µM, coculture fibroblast: HPFa	0.9165	0.8402	0.7527	0.625	0.58	0.58	0.539	0.532	0.526
100 µM, coculture fibroblast: HUF	0.871	0.819	0.731	0.647	0.602	0.598	0.565	0.571	0.556
100 µM, coculture fibroblast: Hs5	0.9139	0.9	0.861	0.8541	0.77	0.753	0.734	0.726	0.7423
100 µM, coculture fibroblast: Hs27A	0.871	0.868	0.832	0.852	0.761	0.815	0.772	0.754	0.627
100 µM, coculture fibroblast: Hs343T	0.905	0.925	0.877	0.8	0.728	0.703	0.683	0.667	0.664
100 µM, coculture fibroblast: WS1	0.8531	0.77	0.653	0.57	0.518	0.504	0.478	0.475	0.468

The reference is the same well before dosing, and untreated signal decays as well.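 Fibroblast labels name human fibroblasts: mostly primary ones from tissues such as uterus (C12385, HUF), lung (H6013), bone (Hs27A), adrenal (HADF) and skin (WS1), plus mammary HMF and breast cancer-associated Hs343T. The cancer cells are basal-like or mesenchymal-like triple-negative breast cancer lines. The paper calls a changed response a hit when it shifts by more than 3x the replicate standard deviation. The tissue of the other fibroblasts is not given here.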
